# Experimental data as given in the supplement of paper PMC10849652.
# By UniProt entry, the sequences of proteins in these tests, tags left out. Where a name states a change or a piece, a line headed by the entry shows the natural chain unless it says otherwise.
# UniProt P56385: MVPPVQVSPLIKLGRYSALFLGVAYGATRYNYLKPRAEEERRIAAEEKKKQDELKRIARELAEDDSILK
# UniProt P56378: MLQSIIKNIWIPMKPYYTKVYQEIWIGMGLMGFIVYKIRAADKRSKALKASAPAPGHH
# UniProt P18859: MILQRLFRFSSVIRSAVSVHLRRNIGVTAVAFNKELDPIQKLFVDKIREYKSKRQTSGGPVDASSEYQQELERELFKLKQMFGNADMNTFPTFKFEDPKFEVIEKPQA
# UniProt Q9HD20: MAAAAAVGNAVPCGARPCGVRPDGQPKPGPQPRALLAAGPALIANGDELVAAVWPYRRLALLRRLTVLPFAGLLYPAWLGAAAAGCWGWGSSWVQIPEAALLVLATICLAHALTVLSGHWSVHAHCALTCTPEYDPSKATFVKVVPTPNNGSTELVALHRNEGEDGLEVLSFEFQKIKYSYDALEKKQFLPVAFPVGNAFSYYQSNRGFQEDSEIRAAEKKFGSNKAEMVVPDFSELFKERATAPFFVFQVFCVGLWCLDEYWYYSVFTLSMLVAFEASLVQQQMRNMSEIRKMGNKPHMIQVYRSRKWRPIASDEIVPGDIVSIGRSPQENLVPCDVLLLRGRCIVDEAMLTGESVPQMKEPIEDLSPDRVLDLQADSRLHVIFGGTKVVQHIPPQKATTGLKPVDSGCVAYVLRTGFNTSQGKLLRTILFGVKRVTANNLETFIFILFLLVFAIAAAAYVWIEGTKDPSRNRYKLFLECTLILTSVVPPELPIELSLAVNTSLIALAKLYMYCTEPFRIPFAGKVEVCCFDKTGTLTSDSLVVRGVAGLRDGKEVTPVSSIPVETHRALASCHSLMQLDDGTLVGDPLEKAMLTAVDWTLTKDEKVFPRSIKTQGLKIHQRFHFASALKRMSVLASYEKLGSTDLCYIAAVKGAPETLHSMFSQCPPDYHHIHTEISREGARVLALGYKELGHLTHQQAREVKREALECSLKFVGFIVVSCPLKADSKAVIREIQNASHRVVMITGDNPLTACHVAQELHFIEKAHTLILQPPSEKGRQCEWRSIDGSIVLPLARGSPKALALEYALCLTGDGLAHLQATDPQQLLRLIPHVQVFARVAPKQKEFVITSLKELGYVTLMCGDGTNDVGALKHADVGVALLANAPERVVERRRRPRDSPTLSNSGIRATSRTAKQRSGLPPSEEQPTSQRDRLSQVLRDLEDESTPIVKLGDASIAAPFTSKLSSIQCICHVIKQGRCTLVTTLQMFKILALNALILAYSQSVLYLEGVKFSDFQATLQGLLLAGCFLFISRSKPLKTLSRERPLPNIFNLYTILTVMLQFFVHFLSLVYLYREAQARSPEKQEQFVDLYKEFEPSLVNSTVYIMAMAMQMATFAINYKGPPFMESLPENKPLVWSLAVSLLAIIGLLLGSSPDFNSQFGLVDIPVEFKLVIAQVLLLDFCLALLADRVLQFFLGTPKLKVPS
# UniProt Q9BYG0: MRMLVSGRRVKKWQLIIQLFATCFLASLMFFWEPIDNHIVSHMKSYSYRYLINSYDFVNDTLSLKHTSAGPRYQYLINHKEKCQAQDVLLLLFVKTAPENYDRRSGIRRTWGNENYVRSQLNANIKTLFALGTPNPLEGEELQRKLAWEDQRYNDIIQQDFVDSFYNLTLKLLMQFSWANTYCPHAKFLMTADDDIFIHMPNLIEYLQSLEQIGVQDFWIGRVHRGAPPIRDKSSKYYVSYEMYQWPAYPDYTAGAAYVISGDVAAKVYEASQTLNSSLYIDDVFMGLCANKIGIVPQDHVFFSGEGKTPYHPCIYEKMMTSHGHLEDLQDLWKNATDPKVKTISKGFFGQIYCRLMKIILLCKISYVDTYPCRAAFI
# UniProt O75882: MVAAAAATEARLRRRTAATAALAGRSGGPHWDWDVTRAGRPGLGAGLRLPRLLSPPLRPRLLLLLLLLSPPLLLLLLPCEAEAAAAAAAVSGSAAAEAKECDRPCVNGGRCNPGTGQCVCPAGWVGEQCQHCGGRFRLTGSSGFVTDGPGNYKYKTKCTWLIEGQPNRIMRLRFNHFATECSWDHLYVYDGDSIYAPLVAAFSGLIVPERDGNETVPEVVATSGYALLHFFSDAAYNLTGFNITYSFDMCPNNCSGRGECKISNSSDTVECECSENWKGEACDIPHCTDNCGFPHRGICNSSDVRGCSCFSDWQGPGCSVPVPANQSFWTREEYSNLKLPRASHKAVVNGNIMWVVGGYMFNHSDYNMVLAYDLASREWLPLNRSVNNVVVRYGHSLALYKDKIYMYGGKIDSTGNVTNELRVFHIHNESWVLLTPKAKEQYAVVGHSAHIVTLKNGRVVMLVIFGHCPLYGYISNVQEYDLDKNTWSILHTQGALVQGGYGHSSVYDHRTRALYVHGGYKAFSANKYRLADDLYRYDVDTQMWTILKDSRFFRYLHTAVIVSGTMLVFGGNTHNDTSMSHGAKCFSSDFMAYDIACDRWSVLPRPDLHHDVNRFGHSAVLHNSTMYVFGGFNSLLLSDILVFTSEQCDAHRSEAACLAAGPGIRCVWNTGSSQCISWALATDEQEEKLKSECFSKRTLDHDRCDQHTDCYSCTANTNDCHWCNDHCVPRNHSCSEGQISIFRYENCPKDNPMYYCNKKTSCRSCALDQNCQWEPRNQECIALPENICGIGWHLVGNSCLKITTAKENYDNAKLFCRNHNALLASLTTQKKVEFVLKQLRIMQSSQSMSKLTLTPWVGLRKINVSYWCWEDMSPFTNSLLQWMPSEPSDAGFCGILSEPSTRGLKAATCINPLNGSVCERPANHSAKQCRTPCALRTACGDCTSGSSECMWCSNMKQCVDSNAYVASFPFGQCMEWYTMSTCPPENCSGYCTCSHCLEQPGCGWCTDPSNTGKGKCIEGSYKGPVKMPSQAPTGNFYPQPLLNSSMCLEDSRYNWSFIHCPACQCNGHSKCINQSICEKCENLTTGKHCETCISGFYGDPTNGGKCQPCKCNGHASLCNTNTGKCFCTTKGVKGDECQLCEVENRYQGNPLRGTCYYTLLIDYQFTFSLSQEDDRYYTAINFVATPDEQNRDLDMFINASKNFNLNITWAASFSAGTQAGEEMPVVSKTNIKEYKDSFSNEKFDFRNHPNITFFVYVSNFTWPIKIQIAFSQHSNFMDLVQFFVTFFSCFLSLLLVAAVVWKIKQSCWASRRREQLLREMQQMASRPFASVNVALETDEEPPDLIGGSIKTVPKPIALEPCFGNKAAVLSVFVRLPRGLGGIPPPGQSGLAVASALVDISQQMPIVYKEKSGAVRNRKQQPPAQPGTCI
# UniProt Q67FW5: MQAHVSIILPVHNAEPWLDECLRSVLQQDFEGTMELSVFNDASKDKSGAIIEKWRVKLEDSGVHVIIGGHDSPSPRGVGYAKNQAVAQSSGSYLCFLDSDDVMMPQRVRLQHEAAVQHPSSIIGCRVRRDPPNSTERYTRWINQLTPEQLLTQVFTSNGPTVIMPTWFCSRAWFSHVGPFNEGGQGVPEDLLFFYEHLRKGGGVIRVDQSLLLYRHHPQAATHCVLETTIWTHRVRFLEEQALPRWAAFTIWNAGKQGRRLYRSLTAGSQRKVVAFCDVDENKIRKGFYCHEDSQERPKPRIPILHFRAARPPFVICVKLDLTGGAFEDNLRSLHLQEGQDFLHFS
# UniProt Q13825: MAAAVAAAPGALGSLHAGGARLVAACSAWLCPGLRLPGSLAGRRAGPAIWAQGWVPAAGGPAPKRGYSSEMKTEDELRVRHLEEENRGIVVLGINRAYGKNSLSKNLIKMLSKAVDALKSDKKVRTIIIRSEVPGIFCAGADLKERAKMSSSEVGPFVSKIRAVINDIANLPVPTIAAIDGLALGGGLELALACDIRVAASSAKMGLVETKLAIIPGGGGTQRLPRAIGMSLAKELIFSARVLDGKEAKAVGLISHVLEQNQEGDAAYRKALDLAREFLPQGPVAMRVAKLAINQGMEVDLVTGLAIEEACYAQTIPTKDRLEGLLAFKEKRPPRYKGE
# UniProt B2RBV5: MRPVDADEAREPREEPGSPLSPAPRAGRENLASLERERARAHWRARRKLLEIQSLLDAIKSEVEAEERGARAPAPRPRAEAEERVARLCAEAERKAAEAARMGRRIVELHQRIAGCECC
# UniProt Q676U5: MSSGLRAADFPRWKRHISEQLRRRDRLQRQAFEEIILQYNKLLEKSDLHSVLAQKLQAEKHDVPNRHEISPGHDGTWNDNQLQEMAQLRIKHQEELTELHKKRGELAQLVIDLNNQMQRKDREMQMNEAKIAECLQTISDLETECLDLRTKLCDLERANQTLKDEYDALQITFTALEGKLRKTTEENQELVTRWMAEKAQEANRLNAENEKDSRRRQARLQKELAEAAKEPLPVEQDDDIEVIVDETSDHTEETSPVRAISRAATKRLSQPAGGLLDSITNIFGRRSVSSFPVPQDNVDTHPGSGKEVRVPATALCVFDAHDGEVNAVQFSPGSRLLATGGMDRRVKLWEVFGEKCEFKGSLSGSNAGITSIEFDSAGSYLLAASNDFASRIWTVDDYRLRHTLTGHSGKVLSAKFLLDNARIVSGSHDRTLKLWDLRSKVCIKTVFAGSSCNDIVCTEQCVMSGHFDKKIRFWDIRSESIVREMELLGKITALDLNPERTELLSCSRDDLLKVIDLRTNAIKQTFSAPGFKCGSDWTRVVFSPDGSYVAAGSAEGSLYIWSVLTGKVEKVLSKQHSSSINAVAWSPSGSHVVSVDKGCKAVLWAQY
# UniProt O95260: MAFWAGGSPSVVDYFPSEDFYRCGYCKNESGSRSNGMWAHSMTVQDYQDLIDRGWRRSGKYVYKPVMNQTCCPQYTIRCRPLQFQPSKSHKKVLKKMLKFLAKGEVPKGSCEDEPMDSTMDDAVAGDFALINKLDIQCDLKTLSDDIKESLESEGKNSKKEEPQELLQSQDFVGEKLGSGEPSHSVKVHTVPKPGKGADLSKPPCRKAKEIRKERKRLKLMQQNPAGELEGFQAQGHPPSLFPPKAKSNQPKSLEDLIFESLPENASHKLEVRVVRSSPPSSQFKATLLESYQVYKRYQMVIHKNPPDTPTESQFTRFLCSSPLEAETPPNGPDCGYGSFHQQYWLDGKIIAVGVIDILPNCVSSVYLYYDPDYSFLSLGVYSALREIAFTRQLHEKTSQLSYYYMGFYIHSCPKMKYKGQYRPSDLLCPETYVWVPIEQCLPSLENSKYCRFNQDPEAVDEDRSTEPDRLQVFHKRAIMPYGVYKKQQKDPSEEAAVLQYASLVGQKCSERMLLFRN
# UniProt P27449, whole entry, looked up: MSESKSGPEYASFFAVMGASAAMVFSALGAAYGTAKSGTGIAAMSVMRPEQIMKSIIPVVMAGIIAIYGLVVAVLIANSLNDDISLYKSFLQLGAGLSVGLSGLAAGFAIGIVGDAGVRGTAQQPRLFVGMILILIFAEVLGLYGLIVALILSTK
# UniProt Q5T9A4: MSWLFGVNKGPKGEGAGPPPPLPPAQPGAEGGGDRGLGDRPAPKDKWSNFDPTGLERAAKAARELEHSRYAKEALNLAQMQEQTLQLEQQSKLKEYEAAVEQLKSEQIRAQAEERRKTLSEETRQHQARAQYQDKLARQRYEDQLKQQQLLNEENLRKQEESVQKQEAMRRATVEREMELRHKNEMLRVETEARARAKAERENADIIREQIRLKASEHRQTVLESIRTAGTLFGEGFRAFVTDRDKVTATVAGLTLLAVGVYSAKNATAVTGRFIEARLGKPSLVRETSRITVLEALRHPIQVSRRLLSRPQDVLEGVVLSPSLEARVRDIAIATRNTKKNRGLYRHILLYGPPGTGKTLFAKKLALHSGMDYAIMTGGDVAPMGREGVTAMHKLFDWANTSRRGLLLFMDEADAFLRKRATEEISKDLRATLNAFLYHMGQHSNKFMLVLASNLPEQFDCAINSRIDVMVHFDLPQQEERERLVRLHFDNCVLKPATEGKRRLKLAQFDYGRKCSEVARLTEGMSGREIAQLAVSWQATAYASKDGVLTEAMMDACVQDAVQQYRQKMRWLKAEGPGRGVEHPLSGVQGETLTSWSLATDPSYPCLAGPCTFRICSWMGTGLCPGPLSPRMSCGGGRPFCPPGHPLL
# UniProt Q15904, whole entry, looked up: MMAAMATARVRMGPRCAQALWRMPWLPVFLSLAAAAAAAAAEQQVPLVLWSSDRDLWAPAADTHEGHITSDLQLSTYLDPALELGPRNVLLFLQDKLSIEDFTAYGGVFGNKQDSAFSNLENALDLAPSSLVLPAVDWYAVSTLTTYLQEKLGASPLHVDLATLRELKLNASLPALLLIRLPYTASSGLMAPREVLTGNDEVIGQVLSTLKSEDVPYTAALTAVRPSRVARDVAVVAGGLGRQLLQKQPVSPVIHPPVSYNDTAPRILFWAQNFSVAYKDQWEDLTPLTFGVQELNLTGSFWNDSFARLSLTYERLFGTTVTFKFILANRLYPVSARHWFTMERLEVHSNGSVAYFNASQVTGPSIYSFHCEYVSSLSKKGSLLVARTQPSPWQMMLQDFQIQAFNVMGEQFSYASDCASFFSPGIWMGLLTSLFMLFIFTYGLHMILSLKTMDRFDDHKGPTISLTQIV
# The list shows a part of the results.
# Compound: Cc1cc(Nc2cc(N3CCN(C)CC3)nc(Sc3ccc(NC(=O)C4CC4)cc3)n2)n[nH]1 [tozasertib]
# Experiment: log2 fold change, soluble protein after heating vs DMSO (PISA); higher = thermal stabilisation; K562 lysate, 10 uM; active = over 0.2 and 3.5 SD of the protein, either way, in both replicates (recomputed)
# Summary of the method: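 To prepare the extract, K562 pellets were dounce-homogenised in PBS pH 7.4 with 1 mM MgCl2, giving crude material at 1 mg/mL protein. This was treated with 10 μM compound for 30 min, then heated in aliquots for 3 min over 48°C-58°C before pooling and addition of NP-40 to 0.5% at 4°C. Centrifugation at 21,000xg for 90 min left soluble protein in the supernatant, which TMTpro 16plex LC-MS/MS quantified with equalised channel sums. Results are log-two fold changes in thermal stability compared with solvent controls, from duplicates.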
row,Target,log2 fold change
1,AVL9 (UniProt Q8NBF6),inactive: -0.018
2,ATP5ME (UniProt P56385),inactive: 0.008
3,ATP5MPL (UniProt P56378),inactive: 0.026
4,ATP5PF isoform 2 (UniProt P18859),inactive: -0.018
5,ATM (UniProt Q13315),inactive: -0.04
6,ATP13A1 (UniProt Q9HD20),inactive: 0.068
7,ATP5F1B (UniProt F8W079),inactive: 0.135
8,B3GNT5 (UniProt Q9BYG0),inactive: -0.122
9,ATRN (UniProt O75882),inactive: -0.055
10,B3GNTL1 (UniProt Q67FW5),inactive: 0.029
11,B4GALNT1 (UniProt Q00973),inactive: 0.072
12,AUH (UniProt Q13825),active: 0.455
13,NA (UniProt B2RBV5),inactive: -0.092
14,ATG16L1 (UniProt Q676U5),inactive: 0.023
15,ATE1 isoform 2 (UniProt O95260),inactive: -0.003
16,ATXN2 (UniProt F8WB05),inactive: 0.043
17,ATP1A1 (UniProt P05023),inactive: -0.026
18,ATP11C (UniProt Q8NB49),inactive: 0.011
19,ATP6V0C (UniProt P27449),inactive: -0.203
20,ATAD3B (UniProt Q5T9A4),inactive: 0.014
21,ATP6V1A (UniProt P38606),inactive: 0.003
22,ATP6AP1 (UniProt Q15904),inactive: -0.039

# Single values from the entries so far.
# In log2 fold change, ATAD3B (UniProt Q5T9A4) has inactive: 0.014
# In log2 fold change, B4GALNT1 (UniProt Q00973) has inactive: 0.072
